No constants are given. Whether binding was seen depends on the method and setting. In cells and extracts the contact can be indirect. Some results given as binding are weak or reduced against the parent protein; the word gives no strength.
Target: TDP43, endogenous in mouse fully grown oocytes (mouse (endogenous in fully grown oocytes)) (UniProt Q921F2)
Experiment: co-IP; endogenous IP from fully grown (GV) mouse oocytes; protein A beads coupled with TDP-43 antibody or rabbit IgG (Fig. 8B)

Sequences of proteins named here, by UniProt entry; tags and fusion partners are left off.
UniProt Q921F2: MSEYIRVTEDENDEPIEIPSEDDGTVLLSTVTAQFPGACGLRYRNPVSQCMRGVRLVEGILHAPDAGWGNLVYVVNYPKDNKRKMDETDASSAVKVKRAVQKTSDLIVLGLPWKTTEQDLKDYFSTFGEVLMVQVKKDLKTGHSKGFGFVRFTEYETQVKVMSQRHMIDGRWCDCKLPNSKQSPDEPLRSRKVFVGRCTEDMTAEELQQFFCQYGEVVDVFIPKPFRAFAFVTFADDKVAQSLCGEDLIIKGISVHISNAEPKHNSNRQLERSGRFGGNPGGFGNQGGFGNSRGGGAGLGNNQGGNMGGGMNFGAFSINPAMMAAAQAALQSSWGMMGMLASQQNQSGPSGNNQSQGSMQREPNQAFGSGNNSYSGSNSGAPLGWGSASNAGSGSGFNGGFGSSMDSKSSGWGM

B1: PABPN1, endogenous in mouse fully grown oocytes (protein, UniProt Q8CCS6 1-302)
chain: MAAAAAAAAAAGAAGGRGSGPGRRRHLVPGAGGEAGEGDPGGAGDYGNGLESEELEPGELLPEPEPEEEPPRPRAPPGAPGPGPGSGAPGSQEEEEEPGLVEADPGDGAIEDPELEAIKARVREMEEEAEKLKELQNEVEKQMNMSPPPGNAGPVIMSLEEKMEADARSIYVGNVDYGATAEELEAHFHGCGSVNRVTILCDKFSGHPKGFAYIEFSDKESVRTSLALDESLFRGRQIKVIPKRTNRPGISTTDRGFPRSRYRARTTNYNSSRSRFYSGFNSRPRGRIYRGRARATSWYSPY
binding: binds

From PMC12784972
